These results are taken from PubChem BioAssay AID1026 (Columbia University Molecular Screening Center, 2008).

By UniProt entry, the sequences of proteins in these tests, tags left out.
UniProt P34913, whole entry, looked up: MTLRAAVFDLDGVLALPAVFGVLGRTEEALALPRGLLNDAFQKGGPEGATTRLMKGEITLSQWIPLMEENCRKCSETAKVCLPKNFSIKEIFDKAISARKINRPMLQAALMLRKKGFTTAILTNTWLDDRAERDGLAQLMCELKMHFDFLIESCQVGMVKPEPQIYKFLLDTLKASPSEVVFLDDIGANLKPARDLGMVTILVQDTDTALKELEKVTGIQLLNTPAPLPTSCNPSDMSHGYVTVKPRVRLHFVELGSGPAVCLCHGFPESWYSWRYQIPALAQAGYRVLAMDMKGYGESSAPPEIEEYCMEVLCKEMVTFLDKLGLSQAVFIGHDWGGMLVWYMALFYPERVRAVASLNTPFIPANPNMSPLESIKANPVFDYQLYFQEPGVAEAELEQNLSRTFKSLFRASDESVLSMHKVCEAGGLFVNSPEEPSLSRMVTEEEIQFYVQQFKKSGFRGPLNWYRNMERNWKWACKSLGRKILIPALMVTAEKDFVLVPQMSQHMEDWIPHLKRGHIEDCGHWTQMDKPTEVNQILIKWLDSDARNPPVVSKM

The target of this assay is Bifunctional epoxide hydrolase 2 (Homo sapiens) (UniProt P34913). The assay can be described thus: sEH inhibitor concentration-response potency, dose response, biochemical, human sEH, fluorescence, Infinite200 (AID 1026). To be noted: recombinant human sEH, fluorogenic substrate, at 0.2 µM, active compounds read high.

Only a part is listed here, and it is no random draw. Active and inactive are the calls of the source. No rule for the calls is given here.

In the case of `CCN(CC)S(=O)(=O)c1cccc(C(=O)Nc2ccc(Cl)cn2)c1`, the inhibition (as a rule, the relative decrease from the control value, in per cent) is inactive: 49.7%.
